Measurements reported in PubChem BioAssay AID652243 (Drosophila RNAi Screening Center, 2013).
The screen tested about 24,000 reagents; below is an unselected part of those that have a named target and a result. Over the whole deposit, 246 (1%) got an active call. 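Plates not normalised; calls are printed but the firefly/Renilla ratio behind them is not deposited; fold cut for lowering reported inconsistently.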 Raw values are not corrected between plates. Not stated in the record: the amount of reagent.

Assay: 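Fly genes required for human androgen receptor driven transcription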 (primary screen)
Cells: Drosophila S2R+ cells
Knock-down reagent: long dsRNA against Drosophila genes
Timing: 72 h (48 h, then 24 h hormone)
Treatment: synthetic androgen R1881 at 10 nM for 24 h
Measured: 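Firefly light from an androgen-responsive reporter and Renilla control light per well, raw and unnormalised, for each of two replicates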
Scale: firefly reporter light: higher = more light from androgen-responsive reporter; Renilla control light: higher = more constitutive control signal (cell number, transfection)
Active means: 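Across duplicate plates, a knock-down whose log firefly/Renilla ratio shifted a set fold down or up from the GFP/LacZ control mean was a hit; the downward cut appears as both 1.5 and 3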
Meaning of the calls: active = hit: reporter lowered or raised; inactive = no hit

The opening 2 entries as a preview:
gene	dsRNA	firefly reporter light, replicate 1	firefly reporter light, replicate 2	Renilla control light, replicate 1	Renilla control light, replicate 2	Outcome
Obp85a (Odorant-binding protein 85a)	DRSC14362	1.50e5	1.89e5	2.80e6	3.03e6	inactive
Kyat (Kynurenine aminotransferase)	DRSC16147	2.28e5	2.00e5	2.57e6	2.40e6	inactive

The list itself, repeating the preview:
gene	dsRNA	firefly reporter light, replicate 1	firefly reporter light, replicate 2	Renilla control light, replicate 1	Renilla control light, replicate 2	Outcome
Obp85a (Odorant-binding protein 85a)	DRSC14362	1.50e5	1.89e5	2.80e6	3.03e6	inactive
Kyat (Kynurenine aminotransferase)	DRSC16147	2.28e5	2.00e5	2.57e6	2.40e6	inactive
CG9686	DRSC18439	60877	83093	1.69e6	1.20e6	inactive
CG9686	DRSC28497	2.68e5	5.61e5	1.15e6	1.36e6	inactive
CG3726	DRSC23143	7.54e5	6.76e5	1.35e6	1.40e6	inactive
CG3726	DRSC27453	2.60e5	2.52e5	7.01e5	6.31e5	inactive
CG33557	DRSC17854	2.80e5	3.59e5	2.71e6	2.53e6	inactive
mus101 (mutagen-sensitive 101)	DRSC19388	5.50e5	6.27e5	2.42e6	3.66e6	inactive
Arf6 (ADP ribosylation factor 6)	DRSC05921	62590	80933	1.31e6	1.31e6	inactive
Kpc2 (Kip1 ubiquitination-promoting complex subunit 2)	DRSC07635	95706	1.09e5	9.08e5	1.47e6	inactive
mnb (minibrain)	DRSC20353	4.59e5	5.17e5	3.94e6	3.10e6	inactive
mnb (minibrain)	DRSC23347	1.05e6	9.22e5	8.63e5	9.99e5	inactive
mnb (minibrain)	DRSC24961	6.06e5	6.74e5	5.85e5	6.45e5	inactive
mnb (minibrain)	DRSC28430	2.12e5	3.46e5	5.46e5	8.83e5	inactive
Slc45-1	DRSC10427	1.88e5	2.21e5	2.26e6	1.94e6	inactive
Prdm13 (PR/SET domain 13)	DRSC09970	2.11e5	2.27e5	1.88e6	2.69e6	inactive
Osi6 (Osiris 6)	DRSC12128	37914	56202	8.91e5	9.88e5	inactive
Osi6 (Osiris 6)	DRSC25935	4.65e5	6.36e5	1.03e6	7.51e5	inactive
CG12883	DRSC14570	1.58e5	2.05e5	1.72e6	2.67e6	inactive
CG12883	DRSC27305	2.74e5	2.43e5	6.09e5	6.29e5	inactive
Roc2 (Regulator of cullins 2)	DRSC07313	3.37e5	2.29e5	2.35e6	1.43e6	inactive
Roc2 (Regulator of cullins 2)	DRSC27174	3.08e5	3.85e5	8.59e5	8.68e5	inactive
cdi (center divider)	DRSC16922	62135	88277	9.03e5	1.04e6	inactive
cdi (center divider)	DRSC28376	2.47e5	4.30e5	6.97e5	1.15e6	inactive
cdi (center divider)	DRSC36651					inactive
cdi (center divider)	DRSC36652					inactive
